In all, about 1,700 compounds were measured (“T3 sensor activation Q score (MG/GFP ratio z-score vs DMSO controls)”: median about 0.25, highest 2% from about 1.9 on). This is one part of the list.
Each molecule was assayed on ppGalNAc-T3 sensor (assay: T3 sensor activation Q score (MG/GFP ratio z-score vs DMSO controls) (SD units); higher = more sensor activation (inhibition of ppGalNAc-T3 glycosylation)). Conditions: HEK293 sensor cells; 10 µM; 6 h.
Description: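 Cells were treated with compound at 10 uM for 6 h, then MG/GFP ratio was read by flow cytometry (10,000 cells per well, duplicate wells). Q = (R - R_neg)/SD_neg relative to DMSO vehicle controls; the signal rises when the glycosyltransferase is inhibited.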

Structure (SMILES)	T3 sensor activation Q score
c1ccc(-n2c3ccccc3c3ccccc32)cc1	-1
CC(C)(C)c1ccc(OCC(=O)O)cc1	0.15
COc1cc(Nc2c(C#N)cnc3cc(OCCCN4CCN(C)CC4)c(OC)cc23)c(Cl)cc1Cl	1
CC(=O)[C@@]1(O)[C@H](C)C[C@H]2[C@@H]3C=C(C)C4=Cc5c(cnn5-c5ccccc5)C[C@]4(C)[C@H]3[C@@H](O)C[C@@]21C	5
COc1ccc(C2=NC(=O)NC2c2ccc(OC)cc2)cc1 (stereo not drawn)	1.05
N#CN=CN1CC=C(c2ccc(Cl)cc2)CC1	-0.7
CCCCCn1cnc2c(=S)nc(N)[nH]c21	-0.25
CC(=NNC(N)=O)c1ccc(Cl)c(-n2cccc2)c1	0.35
O=C(Nc1cccc([N+](=O)[O-])c1)c1ccc2ccccc2c1O	-1.9
Cc1cc2cc3n(c2nn1)N=C(Cl)CC3	-0.1
c1cc2c3c(cccc3c1)NC1(CCC3(CC1)Nc1cccc4cccc(c14)N3)N2	-1.75
O=C(Nc1ccc(Cl)cc1)c1cc2c(cc1O)[nH]c1ccccc12	-0.75
CCOc1ccc2sc(NS(=O)(=O)c3ccc(N)cc3)nc2c1	-0.25
CCCCOc1nc2c(c(=O)n(C)c(=O)n2C)n1C	1.35
O=C1OCC/C1=C\NCCCCCCCCN/C=C1\CCOC1=O	1.2
S=C1SCN(CCc2ccccc2)CN1CCc1ccccc1	0
O=C(O)c1nn(-c2ccccc2-c2n[nH]c(=O)[nH]c2=O)c(=O)[nH]c1=O	-0.1
NCc1c(O)ccc2ccccc12	0.95
[O-][n+]1ccc(CC(O)(C(F)(F)F)C(F)(F)F)cc1	-0.1
O=[N+]([O-])c1cc([N+](=O)[O-])c2cccnc2c1O	-1
CN(C)S(=O)(=O)c1ccc(N)c([N+](=O)[O-])c1	0.85
CCCCNCC1CCCO1 (stereo not drawn)	-0.1
Oc1ccccc1-c1nnco1	0.4
Cc1ccc(-c2cc(C(F)(F)F)nn2-c2ccc(S(N)(=O)=O)cc2)cc1	0.05
Cn1cnc([N+](=O)[O-])c1S(=O)(=O)Oc1cccc2ccccc12	-0.65

An excerpt from above in order of SMILES length, smallest number first:
Structure (SMILES)	T3 sensor activation Q score
CCCCNCC1CCCO1 (stereo not drawn)	-0.1
Oc1ccccc1-c1nnco1	0.4
CC(=NNC(N)=O)c1ccc(Cl)c(-n2cccc2)c1	0.35
COc1cc(Nc2c(C#N)cnc3cc(OCCCN4CCN(C)CC4)c(OC)cc23)c(Cl)cc1Cl	1

(further entries)

Structure (SMILES)	T3 sensor activation Q score
Nc1ncnc2c1ncn2C1OC(CO)C(O)C1N (stereo not drawn)	0.2
CCC(C)(C)c1ccc(Oc2cccc(C(=O)O)c2)cc1	1.3
CC(C=CC1(O)C(C)=CC(=O)CC1(C)C)=CC(=O)O (stereo not drawn)	-1.75
Oc1c(Cl)cc(Cl)cc1C1Nc2ccccc2-n2cccc21 (stereo not drawn)	1.4
Oc1c(CN2CCN(c3ccccc3)CC2)cc(Br)c2cccnc12	-0.15
CC(C)N(C(=O)c1cccc([N+](=O)[O-])c1)C(C)C	-0.3
CC(C)COC(=O)NC1c2ccccc2Oc2ccccc21	0.2
Cc1cc(=O)[nH]c(N)n1	-0.8
Cn1c(=S)c2[nH]c(SCCN3CCCC3)nc2n(C)c1=O	-0.05
CNC(=O)c1nn(C)c(=O)[nH]c1=O	1.1
N#CC(c1ccccc1)C(C/C(=N\O)c1ccccc1)c1ccccc1 (stereo not drawn)	1.8
CCc1cccc2[nH]c3cc([N+](=O)[O-])ccc3c12	-0.3
NC1=C(O)C(=O)C(c2ccccc2)O1 (stereo not drawn)	0.05
CCC1=C(c2ccc(OC)cc2)CCC(C(=O)O)C1C (stereo not drawn)	0.1
CCOC(=O)c1ccc(Nc2sc(C(=O)c3cccc([N+](=O)[O-])c3)c(N)c2C#N)cc1	-0.6
CC(=O)OCC1OC(COC(C)=O)(c2ccc(C)cc2)C(OC(C)=O)C1OC(C)=O (stereo not drawn)	-0.1
Nc1ccc(N=Nc2ccc(O)cc2)c(N)n1	1.5
C#CC1(N2CCCCC2)CCCCC1	0.4
Nc1nc(=S)c2ncn(C3CCCC3)c2[nH]1	-1.55
CCN(c1ccccc1)c1nc(Cl)nc2c1cnn2C	0.1
C=CCNC(=S)N1CCN(c2ccccc2Cl)CC1	-0.25
Cc1csc(N=Nc2ccc(N(C)C)cc2)[n+]1[O-]	1.45
C[C@]12CC[C@@H]3c4ccc(O)cc4C[C@@H](CCCCCCCCC[S+]([O-])CCCC(F)(F)C(F)(F)F)[C@H]3[C@@H]1CC[C@@H]2O (stereo partly drawn)	-1.15
c1ccc(-c2nnc3oc(-c4cccs4)nn23)cc1	-0.2
Nc1ncnc2c([C@@H]3O[C@H](CO)[C@@H](O)[C@H]3O)c[nH]c12	0.15

Structure (SMILES)	T3 sensor activation Q score
CCOP(=O)(OCC)/C(C#N)=C/c1ccc([N+](=O)[O-])cc1	0.45
Cc1cc(=O)n2[nH]c(-c3ccc(C(C)(C)C)cc3)cc2n1	-1.05
O=C(CC1C=Cc2ccccc2N1C(=O)c1ccccc1)c1ccccc1 (stereo not drawn)	-1.4
S=c1[nH]c2ccccc2c2ccccc12	1.2
c1ccc2c(c1)nnn2-c1ccncc1	-1.2
O=C(CCBr)N1CCN(C(=O)CCBr)CC1	-0.1
CNC(=O)c1ccc(N2C(=S)N(c3ccc(C#N)c(C(F)(F)F)c3)C(=O)C2(C)C)cc1F	-1.1
Clc1c(Cl)c(Cl)c2n[nH]nc2c1Cl	0.35
CC(=O)Nc1ccc2cc3ccc(NC(C)=O)cc3nc2c1	0.2
NCC(=O)Nc1ccc(Cl)cc1C(=O)c1ccc[nH]1	0.65
Cc1nnsc1C(=O)NCc1c(F)cccc1Cl	-0.4
O=P(O)(O)C(O)(Cn1ccnc1)P(=O)(O)O	0.1
CCc1nc(NC(C)(C)C)c2cnn(-c3ccccc3)c2n1	-0.4
O=C(O)c1ccccc1C(=O)Nc1cccc([N+](=O)[O-])c1	0.65
Nc1ccccc1Sc1cc(Cl)nnc1Cl	0.85
Oc1ccc(Cc2ccccc2Cl)c(O)c1	-0.5
O=C(Nc1ccc(F)cc1)Oc1ccc[nH]c1=O	0
c1ccc(-n2nnnc2-c2cccc3ccccc23)cc1	-0.85
O=C(O)c1cc(N2C(=O)C=CC2=O)cc(N2C(=O)C=CC2=O)c1	0.75
CCOc1ccc(/C=C2\CCc3ccccc3C2=O)cc1	1.85
CCCCCCCCCC[C@H](C(=O)O)[C@]1(C(=O)O)CCC(=O)O1	1.2
CCOC(=O)c1c[nH][nH]c1=O	1.3
CCOC(=O)Nc1ccc2nc(-c3cscn3)[nH]c2c1	-1.8
Oc1ccc2c(ccc3[nH]cnc32)c1	0.3
CSc1ncc2[nH]c(C(O)c3ccccc3)nc2n1 (stereo not drawn)	-0.6

Structure (SMILES)	T3 sensor activation Q score
Cc1c(Cc2ccccc2)[n+](=O)c2ccccc2n1[O-]	0.1
Cc1nc2ccc(Cl)cn2c1[N+](=O)[O-]	-0.55
Cc1ccc2c(c1)c1ccc3c(c1n2C)C(=O)C=CC3=O	-1.5
O=c1cc(-c2ccc(Cl)cc2)[nH]c2ccccc12	0
Cn1c(=O)c2c(ncn2CCOC(=O)C(C)(C)Oc2ccc(Cl)cc2)n(C)c1=O	-0.8
CN1CCC(=C2c3ccccc3C(O)c3ccccc32)CC1 (stereo not drawn)	-1.45
C[C@]12CC[C@H](O)CC1=CC[C@@H]1[C@@H]2CC[C@]2(C)C(c3cccnc3)=CC[C@@H]12	-0.55
CCN(CC)c1ccc(/C=C/c2cc(-c3ccccc3)c3ccccc3n2)cc1	-1.3
c1ccc(NCCSc2nc3ccccc3s2)cc1	-0.65
c1ccc2nc(NN=C3CCCCC3)ccc2c1	-0.55
Cn1nnc2c(C(N)=O)ncn2c1=O	0.75
Cc1ccc2c(c1)sc1nncn12	-0.15
Cc1cc(C)n(C(N)=NC(=O)c2ccccc2)n1	-0.1
Cc1cc(=O)c2c(o1)C(=O)c1occc1C2=O	1.55
CNc1ncn(-c2c(C)cccc2C)c(=O)n1	1.05
Cc1ccc(S(=O)(=O)N2CC=C(N)N2)cc1	-0.2
Nc1cc2c3c(cccc3c1)C(=O)N(CCN1CCCC1)C2=O	0.1
O=[N+]([O-])c1cc(F)c2cccnc2c1O	1.8
C#CCNc1ccc(C(=O)OCC)cc1	-1.05
O=C1C=C(c2ccccc2)OC(=O)C1C(=O)c1ccccc1 (stereo not drawn)	0.8
CCOc1ccc(NC(=O)Nc2cc(C(C)C)c(O)cc2C)cc1	1.35
CC1=CC2C(C(O)CC3(C)C2CC(C)C32OCOC23COCO3)C2(C)CC(=CO)C(=O)C=C12 (stereo not drawn)	-3.35
CCOC(=O)c1csc(-c2ccc(COC(=O)c3ccccc3)o2)n1	1.25
COc1ccc(-c2cc(-c3ccccc3)c(-c3ccccc3)nn2)cc1	0.95
Cc1ccncc1C(N)=O	1.9

2 of these compounds in a different format:
Structure (SMILES),T3 sensor activation Q score
C[C@]12CC[C@H](O)CC1=CC[C@@H]1[C@@H]2CC[C@]2(C)C(c3cccnc3)=CC[C@@H]12,-0.55
CCN(CC)c1ccc(/C=C/c2cc(-c3ccccc3)c3ccccc3n2)cc1,-1.3

Later entries.

Structure (SMILES)	T3 sensor activation Q score
CC(C)(C)C1=NN=C2c3ccccc3C(=O)C21 (stereo not drawn)	0.25
CN(C)Cc1c[nH]c2nccnc12	-1.4
Brc1csc2ncccc12	1.05
c1ccc(-c2nc3ccccc3s2)nc1	-0.2
Cc1c(O)cnc2nn(-c3ccccc3)c(=N)n12	1.45
COc1cc(/C=C2\CCOC2=O)cc(OC)c1OC	1.15
CO[C@H]1C[C@@H]2CC[C@@H](C)[C@@](O)(O2)C(=O)C(=O)N2CCCC[C@H]2C(=O)O[C@H]([C@H](C)C[C@@H]2CC[C@@H](OC(=O)C(C)(CO)CO)[C@H](OC)C2)CC(=O)[C@H](C)/C=C(\C)[C@@H](O)[C@@H](OC)C(=O)[C@H](C)C[C@H](C)/C=C/C=C/C=C/1C	-1.65
Cn1c(=O)c2c(nc(OCCc3ccccc3)n2C)n(C)c1=O	1.6
O=[N+]([O-])c1ccc(Sc2ncccn2)c([N+](=O)[O-])c1	0.25
C1CCc2nc3c(nc2C1)CCCC3	-0.2
O=C(O)/C(Cc1cn[nH]n1)=N\O	-0.95
Cc1ccc(NC(=O)N2CCN(C)CC2)cc1NC(=O)N1CCN(C)CC1	0.25
CNC(=O)OCN1C(=O)C2CC=CCC2C1=O (stereo not drawn)	1.3
COC1OC2COC(c3ccccc3)OC2C(=O)C1NC(=O)c1ccccc1 (stereo not drawn)	0.3
C=CCN=C(NC#N)SC	0.05
Cc1ccc(S(=O)(=O)NNC(=O)C23CCC(CC2)C3)cc1	0.85
Nc1ncnc2c1ncn2C=C=CCO	-0.8
Cc1cccc(C)c1NC(=O)NCc1ccco1	1.25
C1CCC(NC2=NCCO2)CC1	-1.2
CN(C)c1ccc(/C=C2/C=C(c3ccc4c(c3)CCCC4)OC2=O)cc1	0.9
Cc1nc(Nc2ccc(F)cc2)nc(Nc2ccc(F)cc2)c1[N+](=O)[O-]	-1.05
Cc1nc(N)nc(Cl)c1CCC1OCCO1	0.8
CCOC(=O)c1[nH]c(CO)c(C(=O)OCC)c1C	-0.1

From the supplement of paper PMC5407854, “Inhibitor of ppGalNAc-T3-mediated O-glycosylation blocks cancer cell invasiveness and lowers FGF23 levels” (eLife, 2017)
